Results taken from PMC9301831.
No constants are given. Whether binding was seen depends on the method and setting. Binding seen in cells or lysates may run through a third protein. Some results given as binding are weak or reduced against the parent protein; the word gives no strength.

Protein sequences, listed by entry. Tags and fused reporters are not part of them.
UniProt P68400: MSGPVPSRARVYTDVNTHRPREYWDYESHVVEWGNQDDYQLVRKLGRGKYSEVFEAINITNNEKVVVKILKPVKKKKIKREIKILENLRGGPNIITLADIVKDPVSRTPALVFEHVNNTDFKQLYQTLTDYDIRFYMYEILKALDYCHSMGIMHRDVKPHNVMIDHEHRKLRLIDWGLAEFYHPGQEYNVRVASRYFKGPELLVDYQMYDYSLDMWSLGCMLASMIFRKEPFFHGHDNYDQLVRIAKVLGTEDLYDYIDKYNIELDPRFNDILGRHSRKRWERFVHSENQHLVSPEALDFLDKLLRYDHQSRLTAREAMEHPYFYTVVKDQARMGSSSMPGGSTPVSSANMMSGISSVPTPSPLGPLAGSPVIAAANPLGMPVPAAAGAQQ

Molecular target: Casein Kinase 2 Alpha 1 (CKII) (human (endogenous in MHCC97H and HCCLM3)) (UniProt P68400)
Experiment: co-IP; endogenous proteins of HCC cells (MHCC97H and HCCLM3); protein A/G PLUS-Agarose; IgG group as negative control; SDS-PAGE and immunoblot

binding: binds
Substance: NCAPG, non-SMC subunit in the concentrate I complex (from UniProt Q9BPX3 1-1015)
